Reference: paper PMC5303823, “DEK-targeting DNA aptamers as therapeutics for inflammatory arthritis”
For at least one entry, the source does not settle the construct or the ends of the probe. At least one verdict was read from the data and is not stated in words by the source. Protein sequences can lack the tags named with them.

Target: T1, DEK (recombinant, baculovirus) (UniProt P35659)
T1 sequence (looked up, limits assumed): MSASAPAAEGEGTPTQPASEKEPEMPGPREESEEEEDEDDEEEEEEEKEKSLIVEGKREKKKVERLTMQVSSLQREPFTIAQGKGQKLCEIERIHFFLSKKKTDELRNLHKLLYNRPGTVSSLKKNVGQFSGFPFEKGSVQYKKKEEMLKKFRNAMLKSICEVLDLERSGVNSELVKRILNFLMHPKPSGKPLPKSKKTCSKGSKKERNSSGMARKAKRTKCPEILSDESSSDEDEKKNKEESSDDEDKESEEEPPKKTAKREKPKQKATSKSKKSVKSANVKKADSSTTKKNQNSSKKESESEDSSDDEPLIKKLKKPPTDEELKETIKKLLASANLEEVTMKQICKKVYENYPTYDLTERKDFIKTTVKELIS
Test: filter binding (dot blot, 32P)
Conditions: 5 mM Mg2+, 100 ug/ml salmon sperm DNA, screened as clone with library flanks; Selection and dot blot: 20 mM Tris pH 7.6, 100 mM NaCl, 5 mM MgCl2 (selection at room temperature; dot blot with 100 ug/ml salmon sperm DNA); recombinant protein; single-stranded DNA

GGGGTTAAATATTCCCACATTGCCTGCGCCAGTACAAATAG [DTA-64]
binding result: binds
